Assay results: patent US12612389B2, “Benzofuran-based N-acylhydrazone derivative and pharmaceutical composition comprising same” (KOREA RESEARCH INSTITUTE OF BIOSCIENCE AND BIOTECHNOLOGY, priority 2019, dated 2026)

What was measured:
Assay type in all cases: cell-based
MCF7/ADR = assay: Anti-proliferative activity test in cancer cells exhibiting multidrug resistance (MTT); settings: Homo sapiens, NCI/ADR-RES, 96 h
Method: (§1) HeLa cells (American Type Culture Collection: ATCC, USA), a human cervical cancer cell line, were seeded in a 96-well plate at 3×10^3 cells/well, and the cells were then treated with compounds of Examples or Comparative Example according to the present invention and grown for 2 days. Then, MTT (3-(4,5-dimethylthiazol-2-yl)-2,5-diphenyltetrazolium bromide) reagent was added at 10 μL/well. […] The data shown in Table below are mean values of results obtained by repeating the analysis twice. Specifically, K562 and MCF7 (Bio Evaluation Center, Korea Research Institute of Bioscience and Biotechnology, Korea) and multidrug-resistant cell lines of each of these cell lines, i.e., K562/ADR and MCF7/ADR (Bio Evaluation Center, Korea Research Institute of Bioscience and Biotechnology, Korea), were cultured on microtiter plates (1-3×10^3 cells/well). […] The data shown in Table below are mean values of results obtained by repeating the analysis three times.

MCF7 = assay: Anti-proliferative activity test in cancer cells exhibiting multidrug resistance (MTT), parent line; settings: Homo sapiens, MCF7, 96 h
Method: as §1

K562 = assay: as above; settings: Homo sapiens, K562, 96 h
Method: as §1

Compound: COc1cc2c(c(OC)c1OC)-c1ccc(OC)c(=O)cc1[C@@H](NC(C)=O)CC2 [Colchicine, colchicine]
- IC50 (MCF7/ADR): 0.0925 µM
- IC50 (MCF7): 0.00271 µM
- IC50 (K562): 0.0159 µM
